Measurements as given in PMC10520482.
No constants are given. Whether binding was seen depends on the method and setting. In cells and extracts the contact can be indirect. Binding can be weak; no strength is given. Tags and fused reporters may be left off the sequences shown. One block for each binder: values may come before it.

Chains of the proteins cited; added tags and fusions are not shown. Lines headed by an entry give the natural chain unless they say otherwise; changes in a name come on top.
UniProt Q9NXG0: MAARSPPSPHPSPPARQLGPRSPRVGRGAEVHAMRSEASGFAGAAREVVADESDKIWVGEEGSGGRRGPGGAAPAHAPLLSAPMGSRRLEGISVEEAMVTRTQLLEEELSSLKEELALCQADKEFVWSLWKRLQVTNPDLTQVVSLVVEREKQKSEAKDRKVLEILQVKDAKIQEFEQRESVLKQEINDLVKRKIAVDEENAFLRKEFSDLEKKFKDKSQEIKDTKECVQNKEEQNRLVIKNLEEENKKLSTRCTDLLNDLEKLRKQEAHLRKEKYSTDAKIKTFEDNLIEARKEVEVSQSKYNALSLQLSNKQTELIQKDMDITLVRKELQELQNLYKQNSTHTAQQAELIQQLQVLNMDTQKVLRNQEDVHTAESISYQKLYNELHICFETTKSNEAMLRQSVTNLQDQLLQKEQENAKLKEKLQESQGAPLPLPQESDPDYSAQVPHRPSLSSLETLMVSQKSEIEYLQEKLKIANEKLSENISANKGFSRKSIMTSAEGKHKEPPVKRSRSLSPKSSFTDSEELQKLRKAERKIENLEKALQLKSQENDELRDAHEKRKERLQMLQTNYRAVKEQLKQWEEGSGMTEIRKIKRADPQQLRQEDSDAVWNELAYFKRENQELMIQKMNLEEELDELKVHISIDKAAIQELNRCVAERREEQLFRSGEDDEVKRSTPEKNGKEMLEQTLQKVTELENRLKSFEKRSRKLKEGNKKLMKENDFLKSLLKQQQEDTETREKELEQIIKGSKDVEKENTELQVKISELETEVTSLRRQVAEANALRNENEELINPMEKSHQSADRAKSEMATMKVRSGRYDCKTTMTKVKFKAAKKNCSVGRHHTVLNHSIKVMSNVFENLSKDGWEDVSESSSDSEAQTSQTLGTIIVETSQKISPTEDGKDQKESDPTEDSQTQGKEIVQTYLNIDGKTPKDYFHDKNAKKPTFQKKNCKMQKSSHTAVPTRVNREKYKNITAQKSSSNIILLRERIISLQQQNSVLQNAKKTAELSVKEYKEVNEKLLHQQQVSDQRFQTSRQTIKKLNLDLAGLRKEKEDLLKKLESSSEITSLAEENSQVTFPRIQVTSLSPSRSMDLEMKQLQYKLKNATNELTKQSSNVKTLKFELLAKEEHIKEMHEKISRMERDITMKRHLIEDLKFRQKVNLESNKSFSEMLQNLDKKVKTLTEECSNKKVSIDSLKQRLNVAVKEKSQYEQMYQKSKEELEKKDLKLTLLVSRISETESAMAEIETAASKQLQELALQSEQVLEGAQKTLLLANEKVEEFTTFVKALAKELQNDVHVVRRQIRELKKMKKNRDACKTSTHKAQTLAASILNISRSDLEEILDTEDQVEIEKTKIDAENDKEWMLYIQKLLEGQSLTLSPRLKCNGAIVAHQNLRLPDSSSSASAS

Target: MYC-CENTLEIN (human (from HeLa cDNA)) (UniProt Q9NXG0)
Assay: co-IP; HEK293T co-transfected with MYC-CENTLEIN (or its deletion) and a GFP-tagged plasmid for 48 h; anti-MYC immunoprecipitation, blot with anti-GFP and anti-MYC; ELB buffer (50 mM HEPES pH 7.4, 250 mM NaCl, 0.1% NP-40), 4°C

binding: binds
B1: GFP-KIFC3 (protein, UniProt Q9BVG8 1-833)
chain: MVPSRRTWNLGATPSLRGLWRVGRAPEPEPGMARPAPAPASPAARPFPHTGPGRLRTGRGKDTPVCGDEDSSARSAARPALAQCRALSVDWAGPGSPHGLYLTLQVEHLKEKLISQAQEVSRLRSELGGTDLEKHRDLLMVENERLRQEMRRCEAELQELRTKPAGPCPGCEHSQESAQLRDKLSQLQLEMAESKGMLSELNLEVQQKTDRLAEVELRLKDCLAEKAQEEERLSRRLRDSHETIASLRAQSPPVKYVIKTVEVESSKTKQALSESQARNQHLQEQVAMQRQVLKEMEQQLQSSHQLTARLRAQIAMYESELERAHGQMLEEMQSLEEDKNRAIEEAFARAQVEMKAVHENLAGVRTNLLTLQPALRTLTNDYNGLKRQVRGFPLLLQEALRSVKAEIGQAIEEVNSNNQELLRKYRRELQLRKKCHNELVRLKGNIRVIARVRPVTKEDGEGPEATNAVTFDADDDSIIHLLHKGKPVSFELDKVFSPQASQQDVFQEVQALVTSCIDGFNVCIFAYGQTGAGKTYTMEGTAENPGINQRALQLLFSEVQEKASDWEYTITVSAAEIYNEVLRDLLGKEPQEKLEIRLCPDGSGQLYVPGLTEFQVQSVDDINKVFEFGHTNRTTEFTNLNEHSSRSHALLIVTVRGVDCSTGLRTTGKLNLVDLAGSERVGKSGAEGSRLREAQHINKSLSALGDVIAALRSRQGHVPFRNSKLTYLLQDSLSGDSKTLMVVQVSPVEKNTSETLYSLKFAERVRSVELGPGLRRAELGSWSSQEHLEWEPACQTPQPSARAHSAPSSGTSSRPGSIRRKLQPSGKSRPLPV

binding: binds
B2: GFP-RABIN8 (protein, UniProt Q96QF0-2 1-460)
chain: MANDPLEGFHEVNLASPTSPDLLGVYESGTQEQTTSPSVIYRPHPSALSSVPIQANALDVSELPTQPVYSSPRRLNCAEISSISFHVTDPAPCSTSGVTAGLTKLTTRKDNYNAEREFLQGATITEACDGSDDIFGLSTDSLSRLRSPSVLEVREKGYERLKEELAKAQRELKLKDEECERLSKVRDQLGQELEELTASLFEEAHKMVREANIKQATAEKQLKEAQGKIDVLQAEVAALKTLVLSSSPTSPTQEPLPGGKTPFKKGHTRNKSTSSAMSGSHQDLSVIQPIVKDCKEADLSLYNEFRLWKDEPTMDRTCPFLDKIYQEDIFPCLTFSKSELASAVLEAVENNTLSIEPVGLQPIRFVKASAVECGGPKKCALTGQSKSCKHRIKLGDSSNYYYISPFCRYRITSVCNFFTYIRYIQQGLVKQQDVDQMFWEVMQLRKEMSLAKLGYFKEEL
